Article PMC8270965
No constants are given. Whether binding was seen depends on the method and setting. Binding seen in cells or lysates may run through a third protein. These calls come from enrichment with a bait or labelling near it, and not all partners need be listed.

The chains behind the UniProt entries cited, without tags or fusion partners.
UniProt Q9QUJ7: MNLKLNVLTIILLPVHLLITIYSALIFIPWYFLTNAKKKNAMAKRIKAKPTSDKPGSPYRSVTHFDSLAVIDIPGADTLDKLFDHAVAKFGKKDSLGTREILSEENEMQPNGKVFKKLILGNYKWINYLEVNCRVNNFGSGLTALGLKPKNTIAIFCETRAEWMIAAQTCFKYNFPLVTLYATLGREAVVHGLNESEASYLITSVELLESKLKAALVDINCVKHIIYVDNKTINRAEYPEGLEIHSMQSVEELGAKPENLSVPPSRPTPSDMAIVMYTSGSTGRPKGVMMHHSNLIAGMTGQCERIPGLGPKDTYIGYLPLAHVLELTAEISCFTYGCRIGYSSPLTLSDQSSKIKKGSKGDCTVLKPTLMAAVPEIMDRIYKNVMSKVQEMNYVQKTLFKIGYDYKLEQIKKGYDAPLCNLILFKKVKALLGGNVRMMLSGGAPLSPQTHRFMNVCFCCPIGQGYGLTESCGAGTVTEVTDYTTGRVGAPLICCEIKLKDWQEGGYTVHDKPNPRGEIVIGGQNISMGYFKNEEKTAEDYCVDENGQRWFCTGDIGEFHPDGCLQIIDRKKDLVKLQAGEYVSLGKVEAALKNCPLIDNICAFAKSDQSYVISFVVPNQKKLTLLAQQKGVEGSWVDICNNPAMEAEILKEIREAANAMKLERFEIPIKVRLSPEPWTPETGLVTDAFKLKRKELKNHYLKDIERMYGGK

Target: long-chain-fatty-acid-CoA ligase 4 (Acsl4) (mouse (endogenous in primary cortical neurons)) (UniProt Q9QUJ7)
Assay: affinity purification with mass spectrometry; IP of primary cortical neuron lysates with Acsl4 antibody, gel with silver staining, LC-MS of gel strips

- binding: binds
B1: F-box only protein 10 (Fbxo10) (protein, UniProt Q7TQF2 1-950)
chain: METGGLPLELWRMILAYLHLPDLGRCSLVCRAWYELILSLDSTRWRQLCLGCTECRHPNWPNQPDVEPESWREAFKQHYLASKTWTKNALDLESSICFSLFRRKKERRTLSVGPGHEFDSLGSALAMASLYDRIVLFPGVYEEQGEIILKVPVEIVGQGKLGEVALLASIDQHCSTTRVCNLVFMPAWFSPIMYKTTSGHIQFDNCNFENGHIQVHGPGTCQVKFCTFKNTHVFLHNVPLCMLENCEFVGSENNCVTVEGHPSADKNWAYKYLLGLIKSSPIFLPAEDHDFLMSLDLESRDQAWSPRTCDIVIEGSQSPTSPVCSSPKPGSKEAEVGSDGERVAQTPDSSDGGLSPSGEDEDDEQLTYRLSYQVQGPRPVLGGSFLGPPLPGASIQLPSCLVLNSLHQELQKDKEAMALASSVQGCLIRKCLFRDGKGGVFVCSYGRAKMEGNVFRNLTYAVRCIHNSKIVMLRNDIYRCRASGIFLRLEGGGLIAGNNIYHNAEAGVDIRKKSNPLILCNQIHHGLRSGIVVLGNGKGVIRNNQIFSNKEAGIYILYHGNPIVSGNHIFKGRAAGIAVNENGKGLITENVIRENQWGGVDIRRGGVPILRSNLICFGYSDGVVVGDEGKGLIEGNTIYANKGCGVWMMSSSLPHVTSNHVSYNGLYGVAVFSQKDGEFPGGHGAQENFSEDGDAILWEAELEKEDDPLRRPITVALVESNSINHNGASGIFVQSSEALQVVANVIHANGDRGITIVQSSQLTRVANNSISCNRQSGVKVEFQCKVELRGNGIYDNRGHGIITKGDGTAVVENDIIGNRGSGLQLLPRSDTKVLKNRIHSFRAYGIAVRGRVKALVQENIIFQGKTNKTIFQQITNNRECIMQNNKFLVFKKKSDTWRLVNPPARPHLENSLRGSSAAHSGHKVTAMATRITARVEGGYHSNRSIFCTIL
